# The other results are listed elsewhere or left out. These are raw signals, not scaled to a control.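 Primary screen: polymyxin B was added at a level permeabilizing Salmonella outer membranes while sparing inner membranes. DMSO wells, both with and without polymyxin B, established maximum growth. Plate-to-plate variation meant each plate was ranked on its own, and the lowest-OD600 compounds were selected as hits.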
# Tested on: Salmonella enterica serovar Typhimurium SL1344
# Assay: bacterial growth OD600 after 18 h with compound and polymyxin B; higher = more bacterial growth (less inhibition)
# Details: 50 µM, Mueller-Hinton broth
SMILES,bacterial growth OD600 (polymyxin B 1 µg/mL),bacterial growth OD600 (polymyxin B 0.75 µg/mL)
CCOc1cc(CN2CCC(CCC(=O)Nc3ccccc3)CC2)ccc1OC,0.865,–
CC#CC(=O)N1CCCC(N2CCN(c3cccc(Cl)c3)CC2)C1 (centres undefined),0.702,–
COc1ccccc1CNC(=O)c1c(OC)cc(=O)n2c1CCN(CC1=CC[C@H]3C[C@@H]1C3(C)C)CC2,–,0.006
COCCn1cnc2cc(NC(=O)C3CCCCC3)cc(C(=O)NCCc3ccc(OC)cc3)c21,–,0.729
Cc1ccccc1N1CCN(C(=O)CC2(c3ccccc3C)CC(=O)N(CCN(C)C)C2=O)CC1 (centres undefined),–,0.775
O=C(NC(c1ccco1)C(F)(F)F)c1coc(Cn2cnc3ccccc32)n1 (centres undefined),0.924,–
Cc1nc[nH]c1CN1CC[C@@H](N2CCN(c3ccccn3)CC2)[C@H](O)C1,–,0.803
Cc1cc(OCc2cc(C(=O)N(C)Cc3ccccn3)no2)cc(C)c1Cl,0.035,–
Cn1cncc1C(=O)N1CCC(C2CCN(c3ncccn3)CC2)C1 (centres undefined),–,0.813
COCCNC(=O)c1ccc(OC)cc1OC1CCN(Cc2ccc(F)cc2Cl)CC1,0.044,–
C=CCO[C@H]1[C@H](NC(=O)CSC)c2ccccc2C12CCN(Cc1cc(OC)cc(OC)c1)CC2,–,0.961
COCCCNc1nc2nonc2nc1N(C)Cc1ccc(F)cc1,0.86,–
O=C(CCC1CCN(C(=O)CC2=CCCCC2)CC1)NCC1CCCO1 (centres undefined),0.83,–
COCc1ccc(CN2CCC(Oc3cc(Cl)ccc3C(=O)N3CCCCC3)CC2)o1,1,–
CCCn1c(C)c(CC(=O)NCCc2cscn2)c2c1CC(C)(C)CC2=O,–,0.798
CCn1c(-c2cccnc2)nc2cc(NC(=O)COC)cc(C(=O)NC3CCCc4ccccc43)c21 (centres undefined),–,0.837
C=CCCC(=O)NCc1cc(NS(=O)(=O)c2cccc(C(F)(F)F)c2)cc(C(=O)OC)c1,–,0.734
Cn1ccnc1CNC(=O)C1(N2CCCCC2)Cc2ccccc2C1,–,0.972
COc1cc(CC2(CCC(=O)NCCCOc3cccnc3)CCC(=O)N2)ccc1F (centres undefined),–,0.846
O=C(c1ccccc1)C1CCCN(C(=O)CC2(c3cccc(F)c3)CC(=O)N(C3CCCC3)C2=O)C1 (centres undefined),–,0.007
CCOc1ccccc1C1c2[nH]c3ccccc3c2CCN1C(=O)c1nc2ncccn2n1 (centres undefined),0.06,–
COCCN(Cc1ccc(COC)o1)CC1CCCN(C2Cc3ccccc3C2)C1 (centres undefined),0.834,–
COCCNC(=O)c1ccc(OC)cc1OC1CCN(C2Cc3ccccc3C2)CC1,0.893,–
CC(C)Cn1cc(C(=O)N(C)Cc2cc3ccccc3s2)c(=O)c(C(=O)N2CCCCCC2)c1,–,0.844
COc1ccccc1C(=O)C1CCCN(C(=O)c2csc(-c3cccs3)n2)C1 (centres undefined),0.009,–
CCc1ccc(CN2CCC(Oc3cc(C(=O)NC4CC4)ccc3OC)CC2)cc1,0.942,–
CCN(CC)C(=O)Cn1cc(C(=O)N2CCCC2c2cccc(OC)c2)nn1 (centres undefined),0.788,–
CO[C@H]1[C@H](NC(=O)c2ccccn2)c2ccccc2C12CCN(C(=O)CC1=CCCCC1)CC2,–,0.848
COc1ccccc1-n1cc(C(=O)N2CC[C@@H](N3CCN(C)CC3)[C@H](O)C2)cn1,1.25,–

# Seven of these compounds, reformatted.
SMILES	bacterial growth OD600 (polymyxin B 1 µg/mL)	bacterial growth OD600 (polymyxin B 0.75 µg/mL)
COCCNC(=O)c1ccc(OC)cc1OC1CCN(C2Cc3ccccc3C2)CC1	0.893	–
CC(C)Cn1cc(C(=O)N(C)Cc2cc3ccccc3s2)c(=O)c(C(=O)N2CCCCCC2)c1	–	0.844
COc1ccccc1C(=O)C1CCCN(C(=O)c2csc(-c3cccs3)n2)C1 (centres undefined)	0.009	–
CCc1ccc(CN2CCC(Oc3cc(C(=O)NC4CC4)ccc3OC)CC2)cc1	0.942	–
CCN(CC)C(=O)Cn1cc(C(=O)N2CCCC2c2cccc(OC)c2)nn1 (centres undefined)	0.788	–
CO[C@H]1[C@H](NC(=O)c2ccccn2)c2ccccc2C12CCN(C(=O)CC1=CCCCC1)CC2	–	0.848
COc1ccccc1-n1cc(C(=O)N2CC[C@@H](N3CCN(C)CC3)[C@H](O)C2)cn1	1.25	–
